# From PubChem BioAssay AID1671190 (National Center for Advancing Translational Sciences (NCATS), 2021)
# Chains of the proteins cited; added tags and fusions are not shown. Lines headed by an entry give the natural chain unless they say otherwise; changes in a name come on top.
# UniProt P18054: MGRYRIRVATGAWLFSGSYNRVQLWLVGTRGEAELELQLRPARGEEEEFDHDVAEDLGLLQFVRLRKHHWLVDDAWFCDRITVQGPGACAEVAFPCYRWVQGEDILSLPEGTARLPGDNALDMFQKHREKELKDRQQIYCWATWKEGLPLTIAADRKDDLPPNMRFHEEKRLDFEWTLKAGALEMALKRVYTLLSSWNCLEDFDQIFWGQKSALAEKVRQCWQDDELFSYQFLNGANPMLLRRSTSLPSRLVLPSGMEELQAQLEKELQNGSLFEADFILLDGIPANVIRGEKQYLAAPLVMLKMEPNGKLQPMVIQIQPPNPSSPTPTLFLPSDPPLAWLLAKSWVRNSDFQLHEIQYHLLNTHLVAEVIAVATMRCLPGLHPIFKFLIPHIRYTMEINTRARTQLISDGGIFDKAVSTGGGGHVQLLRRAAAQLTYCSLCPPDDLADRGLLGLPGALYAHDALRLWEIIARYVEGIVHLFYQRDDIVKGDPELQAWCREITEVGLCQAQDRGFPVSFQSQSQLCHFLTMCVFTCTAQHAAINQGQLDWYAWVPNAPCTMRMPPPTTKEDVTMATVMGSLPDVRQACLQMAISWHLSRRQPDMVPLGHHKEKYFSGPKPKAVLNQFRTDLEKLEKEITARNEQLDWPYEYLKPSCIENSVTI
# The campaign covered roughly 580,000 compounds. About 6,100 (1.1%) were called active. This list was built around the results that the source calls inconclusive (neither active nor inactive); the mix of calls is not that of the screen. The call rests on the fitted dose curve; in most records, active means well fitted inhibition curve with a large enough effect; inconclusive means small, poorly fitted or top-dose-only effect, or another doubt; inactive means no such curve, though single readings can be large or run the other way. A potency beside an inconclusive call is a rough fit, not a confirmed value.
# Molecular target: Polyunsaturated fatty acid lipoxygenase ALOX12 (Homo sapiens) (UniProt P18054)
# Experiment: Primary qHTS assay for inhibitors of human arachidonate 12S-lipoxygenase (ALOX12): Round 2
# Conditions: purified 12hLO, xylenol orange hydroperoxide absorbance; activity change, negative = inhibition: at 108 µM (top of the series) unless noted
# How it was run: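 Purified human 12hLO (150 nM final) in 25 mM Hepes, 0.01% Triton X-100, pH 7.0 was preincubated 15 min at room temperature with compound. Then 40 uM arachidonic acid was added, 30 min. Hydroperoxide was read by Fe-XO absorbance ratio 573/405 nm.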
# On the % scale 0 is the no-effect control and ±100 the full control effect; potency means the concentration at half of the fitted maximal effect.
SMILES,Potency,"activity change, negative = inhibition"
Cc1cc(C)c(C(N)CO)cc1C (configuration not stated),"inconclusive: 0.282 µM [inhibitor, full curve, poor fit]",
CCCCCCc1cc2cc(S(=O)(=O)c3ccc(C)cc3)c(=O)oc2cc1O,"inconclusive: 44.7 µM [inhibitor, partial curve, poor fit]",
COc1ccc(-c2cc(Nc3cccc(Cl)c3)nc(C)n2)cc1,"inconclusive: 56.2 µM [inhibitor, partial curve, poor fit]",
O=c1c2ccccc2[nH]c(=S)n1CCCN1CCN(c2ccccc2F)CC1,"inconclusive: 126 µM [inhibitor, partial curve, poor fit]",
COc1ccc(Cl)cc1N(CC(=O)N1CCN(C)CC1)S(=O)(=O)c1ccccc1,,inactive: 44.6%
CC(C)n1c(-c2cccnc2)nc2cnccc21,"inconclusive: 44.7 µM [inhibitor, partial curve, poor fit]",
NC(=O)c1cccc(OCc2coc(-c3cccc(F)c3)n2)c1,,inactive: 7.15%
CNC(=O)c1cccc(OCc2coc(-c3cccc(F)c3)n2)c1,"inconclusive: 50.1 µM [inhibitor, partial curve, poor fit]",
O=C(NCCCN1CCN(c2ccccc2F)CC1)c1cc2c(s1)-c1ccccc1OC2,"inconclusive: 50.1 µM [inhibitor, partial curve, poor fit]",
O=S(=O)(Nc1nc2ccccc2nc1Nc1ccccc1F)c1cccs1,"inconclusive: 63.1 µM [inhibitor, partial curve, poor fit]",
Cc1ccc(C)c(NC(=S)NCc2cccs2)c1,"inconclusive: 39.8 µM [inhibitor, partial curve, poor fit]",
CCOC(=O)C1(CC)CC(CSc2nc3ccccc3[nH]2)OC1=O (configuration not stated),,inactive: -9.61%
Cc1ccc(CNC(=O)C2CCN(S(=O)(=O)c3c(C)noc3/C=C/c3ccco3)CC2)cc1,"inconclusive: 28.2 µM [inhibitor, partial curve, poor fit]",
Cc1ccc(C2/C(=C(/O)c3cnn(-c4ccccc4)c3C)C(=O)C(=O)N2CCN2CCOCC2)o1 (configuration not stated),"inconclusive: 3.16 µM [inhibitor, full curve, poor fit]",
CCCCOc1ccc(C(=O)N/C(=C\c2ccc(Br)cc2)C(=O)NC2CCCCC2)cc1,"inconclusive: 100 µM [inhibitor, partial curve, poor fit]",
CN1CCN(c2ccc(S(=O)(=O)N3CCCCC3)cc2NC(=O)Cc2c(F)cccc2Cl)CC1,"inconclusive: 70.8 µM [inhibitor, partial curve, poor fit]",
Cc1cc(OC(=O)c2ccccc2Cl)cc(=O)n1C,,inactive: 22.6%

# Another view of part of the listing above.
SMILES	Potency	activity change, negative = inhibition
CN1CCN(c2ccc(S(=O)(=O)N3CCCCC3)cc2NC(=O)Cc2c(F)cccc2Cl)CC1	inconclusive: 70.8 µM [inhibitor, partial curve, poor fit]	
Cc1cc(OC(=O)c2ccccc2Cl)cc(=O)n1C		inactive: 22.6%
